The list shows only some results of the screen, not a fair sample: it is rich in T/C values a quarter to a half above the control, in often repeated tests (any T/C) and in doses without a T/C. Further doses and runs are listed elsewhere. T/C gives the treated animals as a percentage of the vehicle group. Some entries give survivors of the animals treated and no T/C: the source holds a T/C of zero for them, seemingly a mark for toxic or unscored doses. Some survivor counts are full or nearly so, which does not show that the dose was tolerated: survival well below the control is almost never listed, so the zero probably covers shortened survival too. Survivors were counted at the toxicity check, usually on the fifth day, unless a day is given; later deaths do not show. Schedule codes are those of the source, read here as Q, the interval in days (D) or hours (H), X, the number of doses. Some doses were run more than once; the results are listed from low to high. Some molecules as drawn cover several salts, stereoisomers or complexes of the source; a dose is that of the sample tested. Counts like (3×) say how often a value occurs here. For survival time, this PubChem deposit counts one and a half times the control or more as active, and values a quarter to a half above the control carry no call in these data; other NCI protocols may use other cut-offs.
Tested on: P388 leukemia ip, CD2F1 mice, survival T/C
Assay: NCI In Vivo Anticancer Drug Screen. Data for tumor model P388 Leukemia (intraperitoneal) in CD2F1 (CDF1) mice
Settings: T/C endpoint: median survival time, higher T/C = longer survival
[1] = dose: 25.0 micrograms/kg/injection, schedule: Q01DX009 (ip), vehicle: saline + alcohol
[2] = dose: 50.0 micrograms/kg/injection, schedule: Q01DX009 (ip), vehicle: saline + alcohol
[3] = dose: 100.0 mg/kg/injection, schedule: Q01DX005 (ip), vehicle: Klucel (hydroxypropylcellulose) (HPC)
[4] = dose: 200.0 mg/kg/injection, schedule: Q01DX009 (ip), vehicle: saline with Tween-80
[5] = dose: 200.0 mg/kg/injection, schedule: Q01DX009 (ip), vehicle: Klucel (hydroxypropylcellulose) (HPC)

COc1cc2cc(c1Cl)N(C)C(=O)CC(OC(=O)C(C)C)C1(C)OC1C(C)C1CC(O)(NC(=O)O1)C(OC)/C=C/C=C(C)C2 (stereo not given)
T/C (dose: 6.25 micrograms/kg/injection, schedule: Q01DX009 (ip), vehicle: saline + alcohol): 130 % of control | T/C (dose: 6.3 micrograms/kg/injection, schedule: Q01DX009 (ip), vehicle: saline + alcohol): 132 % of control | T/C (dose: 12.5 micrograms/kg/injection, schedule: Q01DX009 (ip), vehicle: saline + alcohol): 107, 130, 133, 140 % of control | T/C [1]: 111, 133, 141 % of control | survivor count [1]: 6 of 6 | T/C [2]: 113 and 150 % of control | survivor count [2]: 3 of 6 and 6 of 6 | survivor count (dose: 100.0 micrograms/kg/injection, schedule: Q01DX009 (ip), vehicle: saline + alcohol): 3 of 6 | survivor count (dose: 200.0 micrograms/kg/injection, schedule: Q01DX009 (ip), vehicle: saline + alcohol): 1 of 6 (2×)

COc1ccc2[nH]c3ccc4cc[n+](CCN5CCC(C6CCN(CC[n+]7ccc8ccc9[nH]c%10ccc(OC)cc%10c9c8c7)CC6)CC5)cc4c3c2c1
T/C (dose: 4.0 mg/kg/injection, schedule: Q01DX005 (ip), vehicle: water): 144 % of control | survivor count (dose: 64.0 mg/kg/injection, schedule: Q01DX005 (ip), vehicle: water): 0 of 6 | T/C [3]: 141 % of control | survivor count [3]: 0 of 10 | survivor count (dose: 100.0 mg/kg/injection, schedule: Q01DX005 (ip), vehicle: other): 6 of 6 | survivor count (dose: 200.0 mg/kg/injection, schedule: Q01DX005 (ip), vehicle: Klucel (hydroxypropylcellulose) (HPC)): 6 of 6 | survivor count (dose: 200.0 mg/kg/injection, schedule: Q01DX005 (ip), vehicle: other): 4 of 6

O=C1c2c(Cl)c(Cl)c(Cl)c(Cl)c2C(=O)N1O
survivor count (dose: 50.0 mg/kg/injection, schedule: Q01DX009 (ip), vehicle: saline with Tween-80): 6 of 6 | survivor count (dose: 100.0 mg/kg/injection, schedule: Q01DX009 (ip), vehicle: saline with Tween-80): 6 of 6 | survivor count [4]: 6 of 6

O=C1C=CC(=O)C1=Cc1ccccc1
survivor count (dose: 10.0 mg/kg/injection, schedule: Q04DX002 (ip), vehicle: saline with Tween-80): 1 of 6

CCn1c(=O)c2n[nH]nc2n(CCO)c1=O
survivor count [5]: 6 of 6

COc1ccc(CN2CC(C)N(N=Cc3c4c(O)c5c(O)c(C)c6c(c5c3O)C(=O)C(C)(O/C=C/C(OC)C(C)C(OC(C)=O)C(C)C(O)C(C)C(O)C(C)/C=C/C=C(\C)C(=O)N4)O6)C(C)C2)cc1 (stereo not given)
T/C [4]: 138 % of control | survivor count (dose: 400.0 mg/kg/injection, schedule: Q01DX009 (ip), vehicle: suspension in saline): 6 of 6

O=C1OC(C(O)CO)C(O)=C1O (stereo not given)
survivor count (dose: 100.0 mg/kg/injection, schedule: Q01DX009 (oral), vehicle: saline): 5 of 6 | survivor count (dose: 240.0 mg/kg/injection, schedule: Q01DX005 (ip), vehicle: saline): 5 of 6 | survivor count (dose: 800.0 mg/kg/injection, schedule: Q01DX005 (iv), vehicle: saline): 2 of 6 | survivor count (dose: 1600.0 mg/kg/injection, schedule: Q01DX005 (iv), vehicle: saline): 3 of 6

COC(=O)CCC(Br)(Br)Br
survivor count [5]: 6 of 6

COC(=O)/C=C(\C)Oc1cc(Cl)c(Cl)cc1Cl
survivor count [4]: 6 of 6

CCC[CH2][Pb]([CH2]CCC)([O]C(C)=O)[O]C(C)=O
survivor count (dose: 6.25 mg/kg/injection, schedule: Q04DX003 (ip), vehicle: saline with Tween-80): 3 of 6 | survivor count (dose: 12.5 mg/kg/injection, schedule: Q04DX003 (ip), vehicle: saline with Tween-80): 0 of 6 | survivor count (dose: 25.0 mg/kg/injection, schedule: Q04DX003 (ip), vehicle: saline with Tween-80): 0 of 6 | survivor count (dose: 100.0 mg/kg/injection, schedule: Q04DX003 (ip), vehicle: saline with Tween-80): 0 of 6 | survivor count (dose: 200.0 mg/kg/injection, schedule: Q04DX003 (ip), vehicle: saline with Tween-80): 0 of 6 | survivor count (dose: 400.0 mg/kg/injection, schedule: Q04DX003 (ip), vehicle: saline with Tween-80): 0 of 6
